Measurements: the supplement of paper PMC6418307
Single values of this set are uncertain.

Test system: primary mouse cortical neurons
Test: cell health score (luciferase spike-in reads / total reads per well) (fraction); higher = fewer cellular reads, worse cell health / toxicity
Settings: treatment time 24 h
[1] = 0.01 µM, sex of neuron culture: Female
[2] = 0.01 µM, sex of neuron culture: Male
[3] = 0.1 µM, sex of neuron culture: Female
[4] = 0.1 µM, sex of neuron culture: Male
[5] = 1 µM, sex of neuron culture: Female
[6] = 1 µM, sex of neuron culture: Male
[7] = 10 µM, sex of neuron culture: Female
[8] = 10 µM, sex of neuron culture: Male

SMILES	cell health score [1]	cell health score [2]	cell health score [3]	cell health score [4]	cell health score [5]	cell health score [6]	cell health score [7]	cell health score [8]
COc1cc2c3c(n(CCCn4ccnc4)c(=O)c2cc1OC)-c1cc2c(cc1C3=O)OCO2	0.00324	0.00204	0.002	0.00166	0.00156	0.00159	0.00234	0.0018
COc1ccc(-c2ccc(=N)n(CCCC(=O)O)n2)cc1	0.00079	0.000835	0.000786	0.000953	0.00068	0.000622	0.000937	0.000496
Cc1cnc(-c2cnc(NCCNc3ccc(C#N)cn3)nc2-c2ccc(Cl)cc2Cl)[nH]1	0.000507	0.0018	0.0011	0.000974	0.00108	0.000833	0.00106	0.00109
Cc1sc2c(c1C)C(c1ccc(Cl)cc1)=N[C@@H](CC(=O)OC(C)(C)C)c1nnc(C)n1-2 (racemic) [(+/-)JQ1]	0.00064	0.00098	0.000937	0.00104	0.00117	0.00153	0.00167	0.00144
Cc1c(COC(=O)[C@@H]2[C@H](/C=C(\Cl)C(F)(F)F)C2(C)C)cccc1-c1ccccc1 (racemic) [Bifenthrin]	0.000673	0.000721	0.000863	0.000702	0.000833	0.00062	0.000653	0.000559
NC(CCCP(=O)(O)O)C(=O)O (racemic) [DL-AP5]	0.00041	0.000657	0.000661	0.000622	0.000654	0.00102	0.000958	0.000765
C[C@@]1(c2ccc(Oc3ccccc3)cc2)OC(=O)N(Nc2ccccc2)C1=O (racemic) [Famoxadone]	0.000568	0.000962	0.000836	0.00103	0.00109	0.000522	0.00229	0.000954
CC(C)(C)[C@H](O)[C@H](Cc1ccc(Cl)cc1)n1cncn1 (racemic) [Paclobutrazol]	0.00045	0.00165	0.000858	0.000992	0.000676	0.000862	0.00122	0.00053
Cc1c(F)c(F)c(COC(=O)[C@@H]2[C@H](/C=C(\Cl)C(F)(F)F)C2(C)C)c(F)c1F (racemic) [Tefluthrin]	0.000505	0.000789	0.00145	0.00137	0.000751	0.000493	0.00148	0.000565
Oc1ccc(C(c2ccc(O)cc2)C(Cl)(Cl)Cl)cc1 [2,2-Bis(4-hydroxyphenyl)-1,1,1-trichloroethane]	0.000445	0.00124	0.00135	0.000708	0.000474	0.000581	0.00195	0.000388
O=C(O)COc1ccc(Cl)cc1Cl [2,4-Dichlorophenoxyacetic acid]	0.000508	0.000827	0.000729	0.000963	0.000666	0.000427	0.00116	0.00054
N#CSCSc1nc2ccccc2s1 [2-(Thiocyanomethylthio)benzothiazole]	0.000446	0.000746	0.000788	0.000732	0.000804	0.000473	0.000928	0.00032
COCCO [2-Methoxyethanol]	0.000447	0.000903	0.00106	0.0011	0.00123	0.000734	0.00117	0.000848
OCCOc1ccccc1 [2-Phenoxyethanol]	0.000983	0.000793	0.000736	0.000783	0.00115	0.000476	0.00121	0.000433
Oc1ccccc1-c1ccccc1 [2-Phenylphenol]	0.000403	0.00115	0.000641	0.000947	0.001	0.000675	0.000998	0.000575
CCCCNC(=O)OCC#CI [3-Iodo-2-propynyl-N-butylcarbamate]	0.00056	0.00075	0.000531	0.00128	0.000971	0.000892	0.00162	0.000472
Nc1ncn([C@@H]2O[C@H](CO)[C@@H](O)[C@H]2O)c(=O)n1 [5-azacytidine]	0.000594	0.000761	0.00115	0.000779	0.000646	0.00088	0.000819	0.00194
C[C@]12CC[C@@H]3c4ccc(O)cc4CC[C@H]3[C@@H]1CC[C@@H]2O [17-beta-estradiol]	0.000793	0.000616	0.00132	0.00106	0.000776	0.000936	0.00107	0.000422
CC[C@H](C)[C@H]1O[C@]2(C=C[C@@H]1C)C[C@@H]1C[C@@H](C/C=C(\C)[C@@H](O[C@H]3C[C@H](OC)[C@@H](O[C@H]4C[C@H](OC)[C@@H](O)[C@H](C)O4)[C@H](C)O3)[C@@H](C)/C=C/C=C3\CO[C@@H]4[C@H](O)C(C)=C[C@@H](C(=O)O1)[C@]34O)O2.CO[C@H]1C[C@H](O[C@H]2[C@H](C)O[C@@H](O[C@@H]3/C(C)=C/C[C@@H]4C[C@@H](C[C@]5(C=C[C@H](C)[C@@H](C(C)C)O5)O4)OC(=O)[C@@H]4C=C(C)[C@@H](O)[C@H]5OC/C(=C\C=C\[C@@H]3C)[C@]54O)C[C@@H]2OC)O[C@@H](C)[C@@H]1O [Abamectin]	0.000875	0.000722	0.000724	0.000884	0.000702	0.000858	0.00712	0.024
COP(=O)(NC(C)=O)SC (stereo unspecified) [Acephate]	0.000898	0.000587	0.000676	0.000796	0.000781	0.000657	0.00118	0.000503
C/C(=N\C#N)N(C)Cc1ccc(Cl)nc1 [Acetamiprid]	0.000661	0.000669	0.000736	0.000736	0.00121	0.000725	0.00208	0.000391
CCOCN(C(=O)CCl)c1c(C)cccc1CC [Acetochlor]	0.000615	0.000906	0.00132	0.000922	0.00101	0.000518	0.00127	0.000394
CSC(=O)c1cccc2nnsc12 [Acibenzolar-S-methyl]	0.000583	0.000857	0.000634	0.000858	0.000693	0.001	0.00107	0.000666
O=C(O)c1cc(Oc2ccc(C(F)(F)F)cc2Cl)ccc1[N+](=O)[O-] [Acifluorfen]	0.000594	0.00133	0.00098	0.00084	0.000877	0.000963	0.0011	0.000654
CCc1cccc(CC)c1N(COC)C(=O)CCl [Alachlor]	0.000518	0.00107	0.000487	0.00063	0.000828	0.000815	0.00116	0.00179
CNC(=O)O/N=C/C(C)(C)SC [Aldicarb]	0.000611	0.000685	0.000832	0.00146	0.000803	0.000495	0.00104	0.00125

Reprinted at random: 2 compounds from above, in no set order.
SMILES	cell health score [1]	cell health score [2]	cell health score [3]	cell health score [4]	cell health score [5]	cell health score [6]	cell health score [7]	cell health score [8]
NC(CCCP(=O)(O)O)C(=O)O (racemic) [DL-AP5]	0.00041	0.000657	0.000661	0.000622	0.000654	0.00102	0.000958	0.000765
C[C@]12CC[C@@H]3c4ccc(O)cc4CC[C@H]3[C@@H]1CC[C@@H]2O [17-beta-estradiol]	0.000793	0.000616	0.00132	0.00106	0.000776	0.000936	0.00107	0.000422

Additional structures

SMILES	cell health score [1]	cell health score [2]	cell health score [3]	cell health score [4]	cell health score [5]	cell health score [6]	cell health score [7]	cell health score [8]
C=CCC1=C(C)C(OC(=O)C2C(C=C(C)C)C2(C)C)CC1=O (stereo unspecified) [Allethrin]	0.000738	0.000983	0.000782	0.00076	0.000803	0.000487	0.00118	0.000478
CCNc1nc(NC(C)C)nc(SC)n1 [Ametryn]	0.000631	0.000904	0.000923	0.000527	0.000905	0.000564	0.00104	0.000653
Cc1ccc(/N=C/N(C)/C=N/c2ccc(C)cc2C)c(C)c1 [Amitraz]	0.000662	0.000569	0.000612	0.00142	0.000763	0.000729	0.00127	0.000675
Clc1nc(Cl)nc(Nc2ccccc2Cl)n1 [Anilazine]	0.000487	0.000676	0.000946	0.000982	0.000592	0.000804	0.000683	0.000786
COC(=O)NS(=O)(=O)c1ccc(N)cc1 [Asulam]	0.00071	0.000739	0.000771	0.00109	0.00158	0.000811	0.00153	0.000464
CCNc1nc(Cl)nc(NC(C)C)n1 [Atrazine]	0.000748	0.000951	0.000951	0.000928	0.000972	0.000597	0.000991	0.000666
COP(=O)(OC)SCn1c(=O)oc2cc(Cl)cnc21 [Azamethiphos]	0.000444	0.0009	0.000794	0.000845	0.000778	0.000628	0.00123	0.000556
COP(=S)(OC)SCn1nnc2ccccc2c1=O [Azinphos-methyl]	0.000565	0.000813	0.00139	0.000843	0.000933	0.00056	0.000951	0.000522
CO/C=C(/C(=O)OC)c1ccccc1Oc1cc(Oc2ccccc2C#N)ncn1 [Azoxystrobin]	0.000479	0.000736	0.000916	0.000866	0.00114	0.000748	0.00807	0.004
CNC(=O)Oc1cccc2c1OC(C)(C)O2 [Bendiocarb]	0.00051	0.000724	0.000747	0.000851	0.000868	0.00055	0.000809	0.000624
CCCCN(CC)c1c([N+](=O)[O-])cc(C(F)(F)F)cc1[N+](=O)[O-] [Benfluralin]	0.000492	0.000785	0.00134	0.00106	0.000731	0.000774	0.00129	0.000441
CCCCNC(=O)n1c(NC(=O)OC)nc2ccccc21 [Benomyl]	0.000823	0.000606	0.00109	0.000775	0.000819	0.000743	0.000912	0.000627
CC(C)N1C(=O)c2ccccc2NS1(=O)=O [Bentazone]	0.00055	0.000623	0.000949	0.000634	0.002	0.000647	0.000781	0.000791
COc1ccc(-c2ccccc2)cc1NNC(=O)OC(C)C [Bifenazate]	0.000618	0.000895	0.000735	0.000796	0.000634	0.000688	0.00112	0.00065
CC(C)(c1ccc(O)cc1)c1ccc(O)cc1 [Bisphenol A]	0.000549	0.00078	0.000873	0.000759	0.000818	0.000668	0.00112	0.000478
OB(O)O [Boric acid]	0.00066	0.00102	0.000879	0.00112	0.00103	0.000607	0.00139	0.000712
O=C(Nc1ccccc1-c1ccc(Cl)cc1)c1cccnc1Cl [Boscalid]	0.000644	0.000849	0.000748	0.000721	0.000757	0.000548	0.000784	0.000559
CCC(C)n1c(=O)[nH]c(C)c(Br)c1=O (stereo unspecified) [Bromacil]	0.000514	0.000552	0.00132	0.00109	0.000978	0.000787	0.00116	0.000513
N#Cc1cc(Br)c(O)c(Br)c1 [Bromoxynil]	0.000464	0.000774	0.000734	0.000787	0.00103	0.000663	0.000996	0.000562
CC(C)N1C(=O)N(c2ccccc2)CS/C1=N\C(C)(C)C [Buprofezin]	0.000516	0.00068	0.000737	0.000901	0.00107	0.00108	0.00106	0.000783
CCCCOCN(C(=O)CCl)c1c(CC)cccc1CC [Butachlor]	0.00063	0.00103	0.000774	0.000892	0.00108	0.000773	0.00146	0.000557
C=CCOC(=O)C(C)(C)OC(=O)c1cc(-n2c(=O)cc(C(F)(F)F)n(C)c2=O)ccc1Cl [Butafenacil]	0.000533	0.000931	0.00116	0.000835	0.000998	0.000441	0.000679	0.000681
CCC(C)Nc1c([N+](=O)[O-])cc(C(C)(C)C)cc1[N+](=O)[O-] (stereo unspecified) [Butralin]	0.000536	0.000656	0.000699	0.000802	0.000762	0.000796	0.00101	0.000955
CCSC(=O)N(CC(C)C)CC(C)C [Butylate]	0.000711	0.00128	0.00125	0.000765	0.000712	0.00059	0.00104	0.000502
Cn1c(=O)c2c(ncn2C)n(C)c1=O [Caffeine]	0.000613	0.000693	0.000672	0.0008	0.000575	0.000484	0.000625	0.000548
O=C1C2CC=CCC2C(=O)N1SC(Cl)(Cl)Cl (stereo unspecified) [Captan]	0.00057	0.000805	0.00085	0.00107	0.000644	0.000555	0.00143	0.000669
